No constants are given. Whether binding was seen depends on the method and setting. Binding seen in cells or lysates may run through a third protein. Some entries that bind do so weakly or less than the wild type. Where a sequence is shown, tags or fusion partners need not be part of it.
Experiments:
[1] = biological target: T1, Flag-C-NDP52 (C-terminal cleavage fragment of NDP52) (UniProt Q13137); test: co-IP; HeLa transfected with Flag-NDP52^wt or Flag-C-NDP52 for 24 h; lysates precipitated with anti-Flag antibody; Western blot for TBK1, normalised to anti-Flag IgG light chain
T1 sequence: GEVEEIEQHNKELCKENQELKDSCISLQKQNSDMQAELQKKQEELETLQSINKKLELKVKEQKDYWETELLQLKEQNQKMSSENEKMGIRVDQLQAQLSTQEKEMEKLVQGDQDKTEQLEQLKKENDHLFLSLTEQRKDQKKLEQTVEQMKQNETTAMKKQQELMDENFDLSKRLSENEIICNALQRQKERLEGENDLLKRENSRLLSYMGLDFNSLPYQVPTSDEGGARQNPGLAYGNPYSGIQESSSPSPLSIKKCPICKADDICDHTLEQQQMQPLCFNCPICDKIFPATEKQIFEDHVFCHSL

[2] = biological target: T2, Flag-NDP52^wt (calcium-binding and coiled-coil domain-containing protein 2/nuclear dot 10 protein 52) (UniProt Q13137); test: as above
T2 sequence: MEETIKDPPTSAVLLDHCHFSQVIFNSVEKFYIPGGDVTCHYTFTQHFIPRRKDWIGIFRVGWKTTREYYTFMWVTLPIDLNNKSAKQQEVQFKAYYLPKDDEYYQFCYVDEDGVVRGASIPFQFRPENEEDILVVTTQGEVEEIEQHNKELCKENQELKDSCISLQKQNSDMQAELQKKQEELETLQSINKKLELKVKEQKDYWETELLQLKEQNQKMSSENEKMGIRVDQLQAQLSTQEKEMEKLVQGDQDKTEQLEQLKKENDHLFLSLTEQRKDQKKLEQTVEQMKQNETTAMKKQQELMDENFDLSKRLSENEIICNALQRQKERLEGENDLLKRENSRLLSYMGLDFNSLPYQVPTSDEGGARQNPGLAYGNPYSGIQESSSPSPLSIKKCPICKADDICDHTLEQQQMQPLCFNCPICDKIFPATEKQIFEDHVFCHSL

- binding [1]: binds weakly
- binding [2]: binds
B1: TANK-binding kinase 1 (TBK1) (enzyme, UniProt Q9UHD2 1-729)
chain: MQSTSNHLWLLSDILGQGATANVFRGRHKKTGDLFAIKVFNNISFLRPVDVQMREFEVLKKLNHKNIVKLFAIEEETTTRHKVLIMEFCPCGSLYTVLEEPSNAYGLPESEFLIVLRDVVGGMNHLRENGIVHRDIKPGNIMRVIGEDGQSVYKLTDFGAARELEDDEQFVSLYGTEEYLHPDMYERAVLRKDHQKKYGATVDLWSIGVTFYHAATGSLPFRPFEGPRRNKEVMYKIITGKPSGAISGVQKAENGPIDWSGDMPVSCSLSRGLQVLLTPVLANILEADQEKCWGFDQFFAETSDILHRMVIHVFSLQQMTAHKIYIHSYNTATIFHELVYKQTKIISSNQELIYEGRRLVLEPGRLAQHFPKTTEENPIFVVSREPLNTIGLIYEKISLPKVHPRYDLDGDASMAKAITGVVCYACRIASTLLLYQELMRKGIRWLIELIKDDYNETVHKKTEVVITLDFCIRNIEKTVKVYEKLMKINLEAAELGEISDIHTKLLRLSSSQGTIETSLQDIDSRLSPGGSLADAWAHQEGTHPKDRNVEKLQVLLNCMTEIYYQFKKDKAERRLAYNEEQIHKFDKQKLYYHATKAMTHFTDECVKKYEAFLNKSEEWIRKMLHLRKQLLSLTNQCFDIEEEVSKYQEYTNELQETLPQKMFTASSGIKHTMTPIYPSSNTLVEMTLGMKKLKEEMEGVVKELAENNHILERFGSLTMDGGLRNVDCL
